The structures appear in SMILES notation. The list shows a part of the results. Shown are side measurements of this screen, not its main read-out; they come without a call. The list favours compounds with an active or inconclusive main result. Words in brackets tell the shape of the fitted curve; partial curves, single points and poor fits give uncertain potencies.

This experiment is described as follows: IkB Signaling. The note with it: ABC-DLBCL IkBa-CBG/CBR dual luciferase ratio (green luciferase fused to IkBa over red control in OCI-Ly3 lymphoma cells), 4 h; measured here: control luc red channel unless noted. Summed up: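 In this assay, an IκBα–CBG68 fusion accumulates when IKK-driven degradation is blocked; native CBR normalizes for cell number. OCI-Ly3 cells were treated 4 h with compound and doxycycline, then green and red light read after Chroma-Glo addition.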
With `COc1ccc(N(C)S(=O)(=O)c2cccc(C(=O)Nc3ccc(-n4cnnn4)cc3)c2)cc1`, the AC50 (usually the concentration giving half of the maximal activity seen) is 20 µM [falling, partial curve].

Regarding `O=C1CC(Sc2nnc(-c3ccccc3O)o2)C(=O)N1c1ccccc1` (stereo unspecified), the AC50 was 15.8 µM [falling, partial curve].

For the molecule `CC1CCN(c2ccc(-c3cccc(NS(=O)(=O)c4ccc(F)cc4F)c3)nn2)CC1`, the concentration at half-maximal activity (AC50) was 7.94 µM [falling, partial curve].

In the case of `CCOC(=O)c1sc(NC(=O)c2c(-c3ccccc3)c(-c3ccccc3)nn(C)c2=O)nc1C`, the AC50 is 25.1 µM [falling, partial curve].

For `CC1CCN(C(=O)CSc2nc(-c3ccc(F)cc3)cc(C(F)(F)F)n2)CC1`, the half-maximal activity concentration (AC50) was 5.01 µM [falling, full curve, poor fit].

Regarding `COc1ccc2[nH]cc(CCNc3cc(-c4cccc(C#N)c4)ncn3)c2c1`, the AC50 is 3.16 µM [falling, partial curve] [measured here: IkB-luc green channel].

Consider `CCc1ccc(Nc2nc3ccccc3nc2NS(=O)(=O)c2ccccc2)cc1`, for which the AC50 is 6.31 µM [falling, partial curve].

On to `Cc1ccc(NC(=O)/C=C/c2ccccc2Cl)cc1Cl`, for which the AC50 was 0.00794 µM [rising, full curve, poor fit].

As for `Cc1cc2c(cc1S(=O)(=O)Nc1cc(C(F)(F)F)cc(C(F)(F)F)c1)OCC(=O)N2`, the AC50 is 15.8 µM [falling, partial curve].

Consider `O=C(Cn1c(=O)nc(-c2ccccc2)c2ccccc21)Nc1ccc(Cl)cc1F`, for which the AC50 is 0.398 µM [falling, full curve, poor fit].

With `CCCCOC(=O)c1ccc(NC(=O)c2sc3nc(C)cc(C)c3c2N)cc1`, the AC50 was 0.126 µM [falling, full curve].

As for `COc1ccc(N(C)C(=O)Cn2cc(S(=O)(=O)N3CCN(c4ccccc4F)CC3)c3ccccc3c2=O)c(OC)c1`, the AC50 was 10 µM [falling, partial curve].

Turning to `COc1ccc(NC2=C(c3ccc(C(F)(F)F)cc3)C(=O)c3ccccc32)cc1`, the AC50 is 20 µM [falling, single point].

As for `FC(F)(F)c1ccc(N2CCN(c3cc(-c4ccccc4)nc4ncnn34)CC2)nc1`, the AC50 was 10 µM [falling, partial curve].

As for `COc1ccc(S(=O)(=O)N2CCN(c3ccccc3OC)CC2)cc1`, the AC50 is 3.16 µM [falling, partial curve, poor fit].

For the molecule `Cc1ccc(-c2nc(C)c(CCNC(=O)c3ccccc3Br)s2)cc1`, the concentration at half-maximal activity (AC50) was 31.6 µM [falling, partial curve, poor fit].

`COCCNC(=O)c1ccccc1NC(=O)c1nsc2ccccc12`: the AC50 is 6.31 µM [rising, single point].

Consider `Cc1ccc(-n2cnnn2)cc1S(N)(=O)=O`, for which the AC50 is 7.94 µM [rising, single point].

Turning to `COc1nc(-c2ccccc2)cc(-c2ccc(OC)c(OC)c2)n1`, the AC50 is 5.01 µM [falling, full curve].

`COc1ccc2[nH]cc(CCN=C(NC(=O)c3ccccc3OC)Nc3nc(C)cc(C)n3)c2c1`: the AC50 was 7.94 µM [falling, partial curve].

Regarding `COC(=O)Cn1c(SCCOc2ccccc2OC)nc2ccccc21`, the AC50 was 2 µM [rising, partial curve].

Regarding `Cc1ccc(NC(=O)c2ccc(NC(=O)CCS(=O)(=O)c3cccs3)cc2)cc1F`, the AC50 was 3.16 µM [falling, full curve].

On to `COc1cccc(Cn2cc(C(=O)c3ccc(Cl)cc3)c(=O)c3ccccc32)c1`, for which the AC50 is 39.8 µM [falling, single point].

On to `Clc1ccc(OCc2nc(-c3ccncc3)no2)c(Br)c1`, for which the AC50 was 31.6 µM [falling, single point].

In the case of `Cc1nc2cccnc2n1C1CCN(C(=O)Nc2ccc(Cl)cc2)CC1`, the AC50 was 1.58 µM [rising, full curve, poor fit].

`CCc1c(C)sc2c1CCN(Cc1ccccc1F)C2c1ccccc1` (stereo unspecified): the AC50 is 31.6 µM [falling, single point].

As to `CCOc1ccc(-c2c(C)nn3c(C)c(C(=O)NCCc4ccc(C)cc4)cnc23)cc1OCC`, the AC50 was 31.6 µM [falling, partial curve].

Consider `O=C(NCCSc1c[nH]c2ccccc12)c1ccccc1Cl`, for which the AC50 is 7.94 µM [falling, partial curve].

Take `CCN1CCN(Cc2c(O)ccc3oc(C)c(C(=O)Nc4cccc(C(F)(F)F)c4)c23)CC1`: the AC50 is 15.8 µM [falling, partial curve].

In the case of `COc1cccc(NC(=O)c2c(C)oc3nc(C)nc(N4CCCC4)c23)c1`, the concentration at half-maximal activity (AC50) was 25.1 µM [falling, partial curve, poor fit].

Consider `O=C(NCc1ccccc1)c1noc2c1CCCCC2`, for which the AC50 was 15.8 µM [falling, partial curve].

As for `CCOC(=O)c1cccc(NC(=O)CCS(=O)(=O)c2ccc3c(c2)CCN3C(=O)CC)c1`, the AC50 is 15.8 µM [falling, partial curve, poor fit].

Regarding `O=C(c1ccc(Cl)cc1)n1nc(-c2cccnc2)nc1NCc1ccc(F)cc1`, the AC50 is 12.6 µM [falling, partial curve].

With `COc1cccc2cc(-c3nc(-c4ccc(Cl)cc4)cs3)c(=O)oc12`, the AC50 was 0.00631 µM [rising, full curve, poor fit].

For the molecule `COC(=O)C[C@](O)(CCCC(C)(C)O)C(=O)O[C@@H]1C(OC)=C[C@]23CCCN2CCc2cc4c(cc2[C@H]13)OCO4`, the concentration at half-maximal activity (AC50) is 0.00501 µM [falling, full curve].

`CC(=O)c1cccc(NC(=O)c2ccc3nc(Cc4ccccc4)oc3c2)c1`: the concentration at half-maximal activity (AC50) was 15.8 µM [falling, partial curve].

Regarding `CCCCOc1ccc(C(=O)N(Cc2ccccc2)C2CCS(=O)(=O)C2)cc1` (stereo unspecified), the AC50 was 10 µM [falling, partial curve].

Consider `c1ccc(CN2CCN(c3nc(-c4ccccc4)nc(-n4ccnc4)n3)CC2)cc1`, for which the AC50 is 20 µM [falling, partial curve].

For the molecule `CCOc1ccc(-c2nnc(SCC(=O)Nc3cccc(C#N)c3)o2)cc1`, the concentration at half-maximal activity (AC50) was 10 µM [falling, partial curve].

Turning to `CC(C)c1ccc(NC(=O)C(c2ccccc2)N2CCN(C(=O)c3ccco3)CC2)cc1` (stereo unspecified), the AC50 is 20 µM [falling, partial curve].

`Cc1cc(C)c2c(c1)c(C)cc1nnc(SCC(=O)c3ccccc3)n12`: the AC50 was 6.31 µM [falling, partial curve].

Turning to `O=C(Cc1c[nH]c2ccccc12)NCc1ccc2c(c1)OCO2`, the AC50 is 25.1 µM [falling, partial curve].

For `O=C(CN1C(=O)c2ccccc2Sc2ccc(C(=O)N3CCOCC3)cc21)Nc1ccc(Cl)cc1F`, the AC50 is 10 µM [falling, partial curve].

Consider `Cc1ccc2onc(CC(=O)N3CCN(c4cccc(Cl)c4)CC3)c2c1`, for which the half-maximal activity concentration (AC50) was 25.1 µM [falling, partial curve, poor fit].

On to `CCCCSc1nc2sc3c(c2c(=O)n1-c1ccccc1C)CC(C)(C)OC3`, for which the AC50 is 12.6 µM [falling, partial curve].

As for `CCOc1ccc(-n2cc(-c3ccccc3)c3c(Nc4cccc(F)c4)ncnc32)cc1`, the AC50 was 39.8 µM [falling, single point].

Consider `Cc1ccc(NC(=O)c2cnc(N3CCCC3)nc2C)cc1F`, for which the AC50 is 31.6 µM [falling, partial curve].

`CCN(Cc1ccccc1)S(=O)(=O)c1cc(Br)cc2c1N(C(=O)C1CC1)CC2`: the AC50 is 20 µM [falling, partial curve].

On to `Cc1ccc(O)c(NC(=O)C2=CC(c3ccco3)=NS(=O)(=O)N2C)c1`, for which the half-maximal activity concentration (AC50) was 20 µM [falling, single point].

Consider `O=C(CSc1ncccc1C(=O)Oc1ccccc1Cl)Nc1ccc(C(F)(F)F)cc1Cl`, for which the AC50 was 0.0794 µM [rising, full curve].

As for `Cc1ccc(CN(C(=O)COc2ccccc2[N+](=O)[O-])c2ccccn2)o1`, the AC50 was 25.1 µM [falling, single point].

As to `COc1ccc(NC(=O)C2CCCN(S(=O)(=O)c3ccc(F)cc3)C2)cc1` (stereo unspecified), the concentration at half-maximal activity (AC50) was 10 µM [falling, partial curve].

Regarding `CCN(CC)S(=O)(=O)c1ccc2c(c1)N(CC(=O)Nc1cccc(C#N)c1)C(=O)CO2`, the concentration at half-maximal activity (AC50) is 39.8 µM [falling, single point].

Regarding `O=C(c1cnc(N2CCN(c3ncccn3)CC2)c2ccccc12)N1CCN(c2ncccn2)CC1`, the AC50 was 10 µM [falling, partial curve].

For `CCCN(CCC)C(=O)Cn1c(=O)n(-c2cccc(C)c2)c(=O)c2c1c1cc(OC)ccc1n2C`, the AC50 was 3.98 µM [falling, partial curve].

As for `CCCCOc1ccc(C(C)NC(=O)CN2C(=O)CSc3ccc(S(=O)(=O)N4CCOCC4)cc32)cc1` (stereo unspecified), the AC50 was 39.8 µM [falling, single point].

For `COc1cccc(-c2cc(C(F)(F)F)nc(NCCc3ccc(OC)c(OC)c3)n2)c1`, the half-maximal activity concentration (AC50) is 10 µM [falling, partial curve].

Regarding `O=C(CN1CCCN(Cc2cccc(Cl)c2)S1(=O)=O)Nc1ccc2c(c1)OCCO2`, the AC50 was 20 µM [falling, partial curve].

For the molecule `COc1ccccc1CN1CCC(CNC(=O)c2cnn(-c3ccccc3Cl)c2C2CCN(C(=O)OC(C)(C)C)CC2)CC1`, the half-maximal activity concentration (AC50) was 25.1 µM [falling, single point].

As for `CCC(=O)Nc1ccc(Cl)c(-c2nc3ccccc3[nH]2)c1`, the AC50 is 15.8 µM [falling, single point].

For `Cc1cccc(NC(=O)c2ccc(-n3c(C)nnc3C)cc2)c1`, the half-maximal activity concentration (AC50) was 20 µM [rising, single point] [measured here: IkB-luc green channel].
